Here are results for 42 sequences from PMC7819943, “Rice protein-binding microarrays: a tool to detect cis-acting elements near promoter regions in rice”.

Protein sequences, listed by entry. Tags and fused reporters are not part of them.
UniProt Q0JBA9, entry or part of it: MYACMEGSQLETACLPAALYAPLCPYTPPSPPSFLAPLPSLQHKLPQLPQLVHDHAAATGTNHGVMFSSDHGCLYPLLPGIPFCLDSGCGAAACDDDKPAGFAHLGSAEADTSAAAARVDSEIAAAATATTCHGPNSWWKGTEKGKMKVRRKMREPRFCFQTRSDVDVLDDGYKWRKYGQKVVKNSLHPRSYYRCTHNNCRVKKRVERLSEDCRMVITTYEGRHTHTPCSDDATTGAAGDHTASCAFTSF

The list shows a part of the results.

The experiment deals with OsWRKY34 (Oryza sativa, UniProt Q0JBA9 1-250). Nature of the experiment: protein-binding microarray (RPBM); PBS, 2% BSA, 51.3 ng/ul salmon testes DNA, 50 uM zinc acetate, 200 nM TF, 25 C, 1 h; high values mean tight binding. To be noted: protein: recombinant; tags: N-terminal polyhistidine and DsRed monomer fusion (pET32a); label: CyDye5-dUTP incorporated in the synthesized complementary strand; 3' TTTTT single-stranded linker to array surface; dsDNA, one strand shown. An outline of the steps: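 Using Ni–NTA, transcription factors fused N-terminally to polyhistidine and DsRed were purified after expression in E. coli BL21-CodonPlus. These were incubated at 200 nM with a blocked, double-stranded custom Agilent array for 1 h at 25 °C in a buffer containing 50 µM zinc acetate, and the array was washed. The binding signal is per-feature fluorescence intensity (arbitrary units) on an Axon 4000B scanner.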
On to “CATAATTTACCTTTATATCTTTTTTCTTCTGGGATCTTCTCGGAGTCACCTAGTGCAG”, for which the binding signal is 9340 fluorescence intensity (a.u.).
Regarding “GTCGCCACCCACCATACTAGTCCATCTCGATCCGTCCGTTCGGAGTCACCTAGTGCAG”, the binding signal was 11300 fluorescence intensity (a.u.).
Under “TACCAGTCCCTTTCTTCTGCCCAATTCCACAATGTTAAACCGGAGTCACCTAGTGCAG” stands 8230 fluorescence intensity (a.u.).
Consider “AGATGTTGACTCGCCGAAAACCTGACAAGCTGAAATTCTTCGGAGTCACCTAGTGCAG”, for which the binding signal was 8620 fluorescence intensity (a.u.).
For “GTATTCCAAAACGCCACACCAACCGCACTGTGAATTTCTGCGGAGTCACCTAGTGCAG”, the binding signal is 9640 fluorescence intensity (a.u.).
“CCGATTCTCTTCTCTATCATATTTTATCTCATTAAAATATCGGAGTCACCTAGTGCAG”: the binding signal was 8990 fluorescence intensity (a.u.).
The result for “CTTAGGCTGTGTTTAGTTTCACGCCAAAATTAGAAATTTGCGGAGTCACCTAGTGCAG” reads 8420 fluorescence intensity (a.u.); that for “GTTGTGGGTGTGAAAATTCCATGAATTCATTGTCTTTGCACGGAGTCACCTAGTGCAG”, 8300 fluorescence intensity (a.u.); that for “TGTACATTTCTACTGACCTGCCACGTGGCACTTTACATTCCGGAGTCACCTAGTGCAG”, 10600 fluorescence intensity (a.u.).
The result for “TTCTTCCCCGTCTCCGTCACCCGAACCCTCTCAACCCATGCGGAGTCACCTAGTGCAG” reads 9840 fluorescence intensity (a.u.); that for “TCCCTAAATATTTGACGCCATTGACTTTTTTAAACATGTTCGGAGTCACCTAGTGCAG”, 11200 fluorescence intensity (a.u.); that for “TGCGACGTTGTCTTGATCTTTTGTTGTAATGAAACCGATTCGGAGTCACCTAGTGCAG”, 9060 fluorescence intensity (a.u.).
For the sequence “CACGCAGCTCTCCGGTGGCCGTCGAACCATCCGCGCGGGCCGGAGTCACCTAGTGCAG”, the binding signal was 8120 fluorescence intensity (a.u.).
The result for “CAAACTCCACTTGATTACTTCATCGTGCCGACGTCGACACCGGAGTCACCTAGTGCAG” reads 8600 fluorescence intensity (a.u.); that for “ATGAGACGGTACCTGATACTTGATGCATGCTGTGGTACCACGGAGTCACCTAGTGCAG”, 8820 fluorescence intensity (a.u.).
Under “CATCCATCCCTGCCTTTCTTCAGATCATCTCATACTAGGCCGGAGTCACCTAGTGCAG” stands 10500 fluorescence intensity (a.u.).
Regarding “TTTTACCTGATGTTAAATTTCCCCTAAAACTTGCACGATACGGAGTCACCTAGTGCAG”, the binding signal was 8140 fluorescence intensity (a.u.).
As for “TCCTCTCCATCTCTCTAGTTTCTCTCTCTAATTAAGCATTCGGAGTCACCTAGTGCAG”, the binding signal was 10300 fluorescence intensity (a.u.).
With “GCTACAGCACTCTCCGCCATTCTTCATTTCCAGCCGTTGGCGGAGTCACCTAGTGCAG”, the binding signal was 8740 fluorescence intensity (a.u.).
Take “TACACATCAATGTCGTTACCAGGTTGCTTTGGGCCTTGAACGGAGTCACCTAGTGCAG”: the binding signal is 8200 fluorescence intensity (a.u.).
As for “GCCTATCCTGCCCTCTCTACTACCACCCTTATCGATCTCTCGGAGTCACCTAGTGCAG”, the binding signal was 8340 fluorescence intensity (a.u.).
The result for “ACTTCACATTTCCTTCTAACCTCTGCTTTGTCATTTCATACGGAGTCACCTAGTGCAG” reads 9240 fluorescence intensity (a.u.); that for “AAGTGCTCGATCGGGAGCGGTGGTGGTGGTGGGGAGAGAGCGGAGTCACCTAGTGCAG”, 11300 fluorescence intensity (a.u.); that for “ATCACGCATCGCCTCCTACCTGACACACCACACTGCAAACCGGAGTCACCTAGTGCAG”, 9620 fluorescence intensity (a.u.).
The result for “TGGCCGGAGAGGGGAGATGGGGAGATGGGGAGAGGGGAGGCGGAGTCACCTAGTGCAG” reads 9420 fluorescence intensity (a.u.).
Regarding “CCCGGGTCATTGACCCAATCGACACACATTCATGGTAACTCGGAGTCACCTAGTGCAG”, the binding signal was 8590 fluorescence intensity (a.u.).
With “ACTTACCATGCTATTATATAGGCTGCATATACTCATAAAACGGAGTCACCTAGTGCAG”, the binding signal was 9600 fluorescence intensity (a.u.).
In the case of “ACATATGTTGTTTAAGCTAGTTTTATTGTTATCATTGTAACGGAGTCACCTAGTGCAG”, the binding signal was 9620 fluorescence intensity (a.u.).
For “CCTCTGCTCTGCCGTCGCCCACTCCGCCCGCCGCCCACTCCGGAGTCACCTAGTGCAG”, the binding signal is 8710 fluorescence intensity (a.u.).
For “ACGCACGCACGCAAACCCTATCTCTATGAGCATCTTCGAACGGAGTCACCTAGTGCAG”, the binding signal was 8170 fluorescence intensity (a.u.).
As for “AGGCACCGTCGTTGTCATCCATCATGCTCGACCACTCACGCGGAGTCACCTAGTGCAG”, the binding signal is 8390 fluorescence intensity (a.u.).
With “GTTTTCCGATTGATATCGACATGTCTCTGTTTTCATAGTTCGGAGTCACCTAGTGCAG”, the binding signal was 9300 fluorescence intensity (a.u.).
With “ACCTGTATTTATTTCGTTTTAAATACATGCTTCTAATAGTCGGAGTCACCTAGTGCAG”, the binding signal was 8780 fluorescence intensity (a.u.).
In the case of “GTTTCAAACTTCCAGAGTTCCGGCCCATTTCCGACCCACTCGGAGTCACCTAGTGCAG”, the binding signal was 8620 fluorescence intensity (a.u.).
The result for “AAGACCGCAAAAAAATTTTCCTTCCATCGCTCGCCGCATTCGGAGTCACCTAGTGCAG” reads 9180 fluorescence intensity (a.u.); that for “GCCCCACAGCCATTCCAAGCACATATTCCCTGCACCCTGCCGGAGTCACCTAGTGCAG”, 9260 fluorescence intensity (a.u.); that for “GGTTGGCTCGCATCGGGATTTTACGCGTGTTATGTGTGAACGGAGTCACCTAGTGCAG”, 8600 fluorescence intensity (a.u.).
Under “CCCTGTTTTCATCACTGACGTAGCTAGCAACTAGCTTCCACGGAGTCACCTAGTGCAG” stands 12300 fluorescence intensity (a.u.); under “CACTAATTTTGCCTTTGTGCCTTTTACTATTGCGCATCACCGGAGTCACCTAGTGCAG”, 10200 fluorescence intensity (a.u.).
For “ACGTCAGCAGTCCACGCCTCCACCACGGGTCCAAGCGTCCCGGAGTCACCTAGTGCAG”, the binding signal is 8090 fluorescence intensity (a.u.).
Consider “CATTCCATTAAATTCTGCAGGCACACTTCACCTGATGTTTCGGAGTCACCTAGTGCAG”, for which the binding signal was 9790 fluorescence intensity (a.u.).
The result for “CTGTGCCGCTCGCTCGTTCGCTCTGTGACTGTACGTACATCGGAGTCACCTAGTGCAG” reads 10200 fluorescence intensity (a.u.).
